Results taken from PubChem BioAssay AID2685 (National Center for Advancing Translational Sciences (NCATS), 2010).
Some of the results follow. The main result of the screen is listed elsewhere. These columns were measured beside it and carry no call. The list favours compounds with an active or inconclusive main result. The note in brackets gives the kind of curve behind each potency; many fits are weak.

Assay: qHTS Assay for Lipid Storage Modulators in Drosophila S3 Cells;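 for cell number change: cells counted by Cell Tracker Red CMTPX staining in the red channel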
Conditions: BODIPY lipid droplet fluorescence, 18-24 h; for cell number change: measured here: cell count max response, cells fed with added oleic acid
Procedure, shortened: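 Drosophila S3 cells got compounds at several concentrations plus oleic acid (400 uM solution). Laser-scanning cytometry with 488 nm excitation read lipid droplets at 500-530 nm and cells at 575-640 nm. Percent activity was relative to 20 uM Triacsin C.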

[1] = measured here: lipid fluorescence (Fed channel) AC50, cells fed with added oleic acid
[2] = measured here: cell number channel AC50, cells fed with added oleic acid

| SMILES | cell number change | AC50 [1] | AC50 [2] |
| --- | --- | --- | --- |
| O=C(CSc1ncnc2sc3c(c12)CCCC3)c1ccco1 | -18.9% | 0.731 µM [rising, full curve, poor fit] | – |
| Cc1ccc(-c2nn(-c3ccccc3)cc2/C=N/NC(=O)c2ccncc2)o1 | -20% | – | 0.0058 µM [falling, full curve, poor fit] |
| COc1ccc(Cl)c(N2CCN(CCCNC(=O)Nc3ccc(C)cc3)CC2)c1 | -24.5% | 18.4 µM [rising, single point] | – |
| CC(=O)N(CCCc1ccc(C(C)(C)C)cc1)CCCN(C)C | 7.82% | – | – |
| O=C(Nc1cccnc1Cl)c1cc(-c2ccc(Cl)cc2)on1 | 16.2% | 6.51 µM [rising, single point] | – |
| Cn1c(C(=O)NCc2ccc3c(c2)OCO3)cc2sccc21 | -22.9% | 9.2 µM [rising, partial curve, poor fit] | – |
| CC(OC(=O)c1cc(=O)[nH]c2ccccc12)C(=O)Nc1ccc(Cl)cn1 (configuration not stated) | -8.89% | – | – |
| Cc1ccc2c(c1)C(=O)CCN2 | -1.26% | – | 0.00651 µM [falling, full curve] |
| CCCOc1ccc(-c2nn(-c3ccccc3)cc2/C=C2\SC(=S)N(C3CCS(=O)(=O)C3)C2=O)cc1 (configuration not stated) | 20.8% | 5.8 µM [falling, full curve, poor fit] | – |
| CCn1c(CC(=O)Nc2ccccc2)nnc1SCC(=O)Nc1ccccc1C(=O)OC | – | 0.82 µM [rising, full curve] | 2.06 µM [rising, partial curve] |
| CC1(C)OC(=O)C(=CNc2ccc(F)cc2)C(=O)O1 | 5.3% | 29.1 µM [rising, single point] | – |
| CCC(C)c1ccccc1N1CC(C(=O)N2CCN(S(=O)(=O)c3ccccc3Br)CC2)CC1=O (configuration not stated) | – | 23.1 µM [falling, single point] | 0.164 µM [falling, full curve, poor fit] |
| Cc1ccc(NC(=O)c2cnccn2)c(OC(F)F)c1 | 242% | 9.2 µM [rising, partial curve] | 8.2 µM [rising, partial curve] |
| COCCN(C(=O)c1ccccc1)c1nnc(-c2cccnc2)s1 | -20.1% | 0.92 µM [falling, full curve, poor fit] | – |
| Cc1ccc(C(=O)c2c(NC(=O)c3ccncc3)sc3c2CCCC3)cc1 | 62% | 7.31 µM [rising, partial curve] | 6.51 µM [rising, partial curve] |
| c1ccc(-c2cc(-c3nc4ccccc4[nH]3)c3ccccc3n2)cc1 | 3.51% | 1.16 µM [falling, full curve] | – |

Retrieved one by one from the entries so far, two records:

| SMILES | cell number change | AC50 [1] | AC50 [2] |
| --- | --- | --- | --- |
| CC1(C)OC(=O)C(=CNc2ccc(F)cc2)C(=O)O1 | 5.3% | 29.1 µM [rising, single point] | – |
| Cn1c(C(=O)NCc2ccc3c(c2)OCO3)cc2sccc21 | -22.9% | 9.2 µM [rising, partial curve, poor fit] | – |
